From PMC12732451, “Functional Coupling of Calcium-Sensing Receptor and Polycystin-2 in Renal Epithelial Cells: Physiological Role and Potential Therapeutic Target in Polycystic Kidney Disease” (International Journal of Molecular Sciences, 2025)
No constants are given. Whether binding was seen depends on the method and setting. Binding seen in cells or lysates may run through a third protein. Some entries that bind do so weakly or less than the wild type. One block for each binder: values may come before it.

Columns and labels:
[1] = biological target: T1, Polycystin 2 (PC2), human, endogenous in PTEC (human (endogenous in PTEC)) (UniProt Q13563); test: co-IP; PTEC wt and PC1KD (PKD1 knocked down) lysates (1% Triton X-100, 150 mM NaCl, 25 mM Hepes pH 7.4); anti-PC2 antibodies coupled to protein A-Sepharose, overnight; immunoblot with anti-CaSR and anti-PC2
T1 sequence: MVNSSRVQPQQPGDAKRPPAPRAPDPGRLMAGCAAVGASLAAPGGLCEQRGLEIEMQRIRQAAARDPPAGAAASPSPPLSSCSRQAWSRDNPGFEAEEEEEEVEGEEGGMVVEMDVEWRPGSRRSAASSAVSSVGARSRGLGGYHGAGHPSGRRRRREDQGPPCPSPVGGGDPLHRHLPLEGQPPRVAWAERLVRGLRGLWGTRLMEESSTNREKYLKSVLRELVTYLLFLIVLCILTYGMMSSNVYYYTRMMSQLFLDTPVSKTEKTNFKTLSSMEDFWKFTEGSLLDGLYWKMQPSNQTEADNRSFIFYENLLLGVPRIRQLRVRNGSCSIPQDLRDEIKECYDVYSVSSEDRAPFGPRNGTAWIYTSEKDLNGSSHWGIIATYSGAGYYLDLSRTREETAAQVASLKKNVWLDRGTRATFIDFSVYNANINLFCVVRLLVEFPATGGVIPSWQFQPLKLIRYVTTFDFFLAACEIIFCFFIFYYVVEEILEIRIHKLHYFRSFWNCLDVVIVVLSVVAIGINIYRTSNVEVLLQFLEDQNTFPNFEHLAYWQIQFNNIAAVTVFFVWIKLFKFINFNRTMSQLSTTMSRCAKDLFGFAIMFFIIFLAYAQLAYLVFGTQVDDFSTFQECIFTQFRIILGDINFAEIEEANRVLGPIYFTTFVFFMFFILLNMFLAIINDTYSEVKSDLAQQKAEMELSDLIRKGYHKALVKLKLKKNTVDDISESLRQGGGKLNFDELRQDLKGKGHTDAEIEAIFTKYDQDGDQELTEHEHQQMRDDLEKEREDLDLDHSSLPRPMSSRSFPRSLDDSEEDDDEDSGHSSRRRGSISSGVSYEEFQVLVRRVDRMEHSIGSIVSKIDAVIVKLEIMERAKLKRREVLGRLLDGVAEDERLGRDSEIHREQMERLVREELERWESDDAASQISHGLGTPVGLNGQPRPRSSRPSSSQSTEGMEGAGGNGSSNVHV

[2] = biological target: T1, Polycystin 2 (PC2), human, endogenous in PTEC (human (endogenous in PTEC)); test: proximity ligation; DuoLink In Situ, confluent monolayer of PTEC wt, fixed (4% paraformaldehyde) and permeabilized (0.1% SDS); mouse anti-CaSR and rabbit anti-PC2; distances < 40 nm
[3] = biological target: T2, Polycystin 2 (PC2), mouse, endogenous in kidney (mouse (endogenous in kidney)) (UniProt O35245); test: co-IP; mouse kidney homogenates; immunoprecipitation of PC2, blot for CaSR
T2 sequence: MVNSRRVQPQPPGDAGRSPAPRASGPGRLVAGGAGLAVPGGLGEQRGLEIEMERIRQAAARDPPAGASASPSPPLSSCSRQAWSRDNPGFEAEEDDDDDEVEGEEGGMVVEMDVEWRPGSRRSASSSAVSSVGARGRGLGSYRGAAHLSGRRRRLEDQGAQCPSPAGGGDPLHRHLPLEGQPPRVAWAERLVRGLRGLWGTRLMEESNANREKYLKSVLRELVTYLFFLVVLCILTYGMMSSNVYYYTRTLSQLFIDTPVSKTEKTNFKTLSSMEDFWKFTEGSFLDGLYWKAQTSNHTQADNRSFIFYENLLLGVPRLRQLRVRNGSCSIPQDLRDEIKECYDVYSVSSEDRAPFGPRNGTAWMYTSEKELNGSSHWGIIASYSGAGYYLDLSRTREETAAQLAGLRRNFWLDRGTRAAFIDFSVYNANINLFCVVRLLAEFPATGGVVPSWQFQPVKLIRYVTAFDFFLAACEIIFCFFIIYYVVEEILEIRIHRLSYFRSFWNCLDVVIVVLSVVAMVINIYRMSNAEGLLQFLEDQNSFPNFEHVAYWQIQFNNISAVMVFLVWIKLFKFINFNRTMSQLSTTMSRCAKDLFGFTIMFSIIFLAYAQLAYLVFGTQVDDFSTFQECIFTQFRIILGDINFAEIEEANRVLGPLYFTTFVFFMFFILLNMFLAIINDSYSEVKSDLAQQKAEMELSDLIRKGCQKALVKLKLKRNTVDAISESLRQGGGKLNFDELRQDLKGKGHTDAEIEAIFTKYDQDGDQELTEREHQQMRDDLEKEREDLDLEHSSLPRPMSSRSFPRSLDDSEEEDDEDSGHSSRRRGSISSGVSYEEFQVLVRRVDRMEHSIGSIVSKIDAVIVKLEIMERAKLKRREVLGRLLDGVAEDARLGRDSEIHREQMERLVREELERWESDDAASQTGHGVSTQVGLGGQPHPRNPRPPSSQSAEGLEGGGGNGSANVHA

binding [1]: binds
binding [2]: binds
B1: Calcium Sensing Receptor (CaSR), human, endogenous in PTEC (receptor, human (endogenous in PTEC), UniProt P41180 20-1078, looked up)
chain: YGPDQRAQKKGDIILGGLFPIHFGVAAKDQDLKSRPESVECIRYNFRGFRWLQAMIFAIEEINSSPALLPNLTLGYRIFDTCNTVSKALEATLSFVAQNKIDSLNLDEFCNCSEHIPSTIAVVGATGSGVSTAVANLLGLFYIPQVSYASSSRLLSNKNQFKSFLRTIPNDEHQATAMADIIEYFRWNWVGTIAADDDYGRPGIEKFREEAEERDICIDFSELISQYSDEEEIQHVVEVIQNSTAKVIVVFSSGPDLEPLIKEIVRRNITGKIWLASEAWASSSLIAMPQYFHVVGGTIGFALKAGQIPGFREFLKKVHPRKSVHNGFAKEFWEETFNCHLQEGAKGPLPVDTFLRGHEESGDRFSNSSTAFRPLCTGDENISSVETPYIDYTHLRISYNVYLAVYSIAHALQDIYTCLPGRGLFTNGSCADIKKVEAWQVLKHLRHLNFTNNMGEQVTFDECGDLVGNYSIINWHLSPEDGSIVFKEVGYYNVYAKKGERLFINEEKILWSGFSREVPFSNCSRDCLAGTRKGIIEGEPTCCFECVECPDGEYSDETDASACNKCPDDFWSNENHTSCIAKEIEFLSWTEPFGIALTLFAVLGIFLTAFVLGVFIKFRNTPIVKATNRELSYLLLFSLLCCFSSSLFFIGEPQDWTCRLRQPAFGISFVLCISCILVKTNRVLLVFEAKIPTSFHRKWWGLNLQFLLVFLCTFMQIVICVIWLYTAPPSSYRNQELEDEIIFITCHEGSLMALGFLIGYTCLLAAICFFFAFKSRKLPENFNEAKFITFSMLIFFIVWISFIPAYASTYGKFVSAVEVIAILAASFGLLACIFFNKIYIILFKPSRNTIEEVRCSTAAHAFKVAARATLRRSNVSRKRSSSLGGSTGSTPSSSISSKSNSEDPFPQPERQKQQQPLALTQQEQQQQPLTLPQQQRSQQQPRCKQKVIFGSGTVTFSLSFDEPQKNAMAHRNSTHQNSLEAQKSSDTLTRHEPLLPLQCGETDLDLTVQETGLQGPVGGDQRPEVEDPEELSPALVVSSSQSFVISGGGSTVTENVVNS
notes: Calcium sensing receptor (CaSR), human, endogenous in PTEC; no construct, no residues stated; Endogenous protein, detected with a monoclonal anti-CaSR antibody (Sigma C0493); also called extracellular calcium sensing receptor

binding [3]: binds
B2: Calcium Sensing Receptor (CaSR), mouse, endogenous in kidney (receptor, UniProt Q9QY96 20-1079)
chain: YGPDQRAQKKGDIILGGLFPIHFGVAAKDQDLKSRPESVECIRYNFRGFRWLQAMIFAIEEINSSPALLPNMTLGYRIFDTCNTVSKALEATLSFVAQNKIDSLNLDEFCNCSEHIPSTIAVVGATGSGVSTAVANLLGLFYIPQVSYASSSRLLSNKNQFKSFLRTIPNDEHQATAMADIIEYFRWNWVGTIAADDDYGRPGIEKFREEAEERDICIDFSELISQYSDEEEIQQVVEVIQNSTAKVIVVFSSGPDLEPLIKEIVRRNITGRIWLASEAWASSSLIAMPEYFHVVGGTIGFGLKAGQIPGFREFLQKVHPRKSVHNGFAKEFWEETFNCHLQDGAKGPLPVDTFVRSHEEGGNRLLNSSTAFRPLCTGDENINSVETPYMDYEHLRISYNVYLAVYSIAHALQDIYTCLPGRGLFTNGSCADIKKVEAWQVLKHLRHLNFTNNMGEQVTFDECGDLVGNYSIINWHLSPEDGSIVFKEVGYYNVYAKKGERLFINEGKILWSGFSREVPFSNCSRDCQAGTRKGIIEGEPTCCFECVECPDGEYSGETDASACDKCPDDFWSNENHTSCIAKEIEFLAWTEPFGIALTLFAVLGIFLTAFVLGVFIKFRNTPIVKATNRELSYLLLFSLLCCFSSSLFFIGEPQDWTCRLRQPAFGISFVLCISCILVKTNRVLLVFEAKIPTSFHRKWWGLNLQFLLVFLCTFMQIVICIIWLYTAPPSSYRNHELEDEIIFITCHEGSLMALGSLIGYTCLLAAICFFFAFKSRKLPENFNEAKFITFSMLIFFIVWISFIPAYASTYGKFVSAVEVIAILAASFGLLACIFFNKVYIILFKPSRNTIEEVRSSTAAHAFKVAARATLRRPNISRKRSSSLGGSTGSIPSSSISSKSNSEDRFPQPERQKQQQPLALTQQEQQQQPLTLQPQQQQQPQQPRCKQKVIFGSGTVTFSLSFDEPQKNAMAHRNSMRQNSLEAQKSNDTLNRHQALLPLQCAEADSEMTIQETGLQGPMVGDHQPEIESPDEMSPALVMSTSRSFVISGGGSSVTENILHS
